{"sequences": {"note": "Amino acid sequences for entries named in this document (tags omitted).", "UniProt O35505, whole entry": "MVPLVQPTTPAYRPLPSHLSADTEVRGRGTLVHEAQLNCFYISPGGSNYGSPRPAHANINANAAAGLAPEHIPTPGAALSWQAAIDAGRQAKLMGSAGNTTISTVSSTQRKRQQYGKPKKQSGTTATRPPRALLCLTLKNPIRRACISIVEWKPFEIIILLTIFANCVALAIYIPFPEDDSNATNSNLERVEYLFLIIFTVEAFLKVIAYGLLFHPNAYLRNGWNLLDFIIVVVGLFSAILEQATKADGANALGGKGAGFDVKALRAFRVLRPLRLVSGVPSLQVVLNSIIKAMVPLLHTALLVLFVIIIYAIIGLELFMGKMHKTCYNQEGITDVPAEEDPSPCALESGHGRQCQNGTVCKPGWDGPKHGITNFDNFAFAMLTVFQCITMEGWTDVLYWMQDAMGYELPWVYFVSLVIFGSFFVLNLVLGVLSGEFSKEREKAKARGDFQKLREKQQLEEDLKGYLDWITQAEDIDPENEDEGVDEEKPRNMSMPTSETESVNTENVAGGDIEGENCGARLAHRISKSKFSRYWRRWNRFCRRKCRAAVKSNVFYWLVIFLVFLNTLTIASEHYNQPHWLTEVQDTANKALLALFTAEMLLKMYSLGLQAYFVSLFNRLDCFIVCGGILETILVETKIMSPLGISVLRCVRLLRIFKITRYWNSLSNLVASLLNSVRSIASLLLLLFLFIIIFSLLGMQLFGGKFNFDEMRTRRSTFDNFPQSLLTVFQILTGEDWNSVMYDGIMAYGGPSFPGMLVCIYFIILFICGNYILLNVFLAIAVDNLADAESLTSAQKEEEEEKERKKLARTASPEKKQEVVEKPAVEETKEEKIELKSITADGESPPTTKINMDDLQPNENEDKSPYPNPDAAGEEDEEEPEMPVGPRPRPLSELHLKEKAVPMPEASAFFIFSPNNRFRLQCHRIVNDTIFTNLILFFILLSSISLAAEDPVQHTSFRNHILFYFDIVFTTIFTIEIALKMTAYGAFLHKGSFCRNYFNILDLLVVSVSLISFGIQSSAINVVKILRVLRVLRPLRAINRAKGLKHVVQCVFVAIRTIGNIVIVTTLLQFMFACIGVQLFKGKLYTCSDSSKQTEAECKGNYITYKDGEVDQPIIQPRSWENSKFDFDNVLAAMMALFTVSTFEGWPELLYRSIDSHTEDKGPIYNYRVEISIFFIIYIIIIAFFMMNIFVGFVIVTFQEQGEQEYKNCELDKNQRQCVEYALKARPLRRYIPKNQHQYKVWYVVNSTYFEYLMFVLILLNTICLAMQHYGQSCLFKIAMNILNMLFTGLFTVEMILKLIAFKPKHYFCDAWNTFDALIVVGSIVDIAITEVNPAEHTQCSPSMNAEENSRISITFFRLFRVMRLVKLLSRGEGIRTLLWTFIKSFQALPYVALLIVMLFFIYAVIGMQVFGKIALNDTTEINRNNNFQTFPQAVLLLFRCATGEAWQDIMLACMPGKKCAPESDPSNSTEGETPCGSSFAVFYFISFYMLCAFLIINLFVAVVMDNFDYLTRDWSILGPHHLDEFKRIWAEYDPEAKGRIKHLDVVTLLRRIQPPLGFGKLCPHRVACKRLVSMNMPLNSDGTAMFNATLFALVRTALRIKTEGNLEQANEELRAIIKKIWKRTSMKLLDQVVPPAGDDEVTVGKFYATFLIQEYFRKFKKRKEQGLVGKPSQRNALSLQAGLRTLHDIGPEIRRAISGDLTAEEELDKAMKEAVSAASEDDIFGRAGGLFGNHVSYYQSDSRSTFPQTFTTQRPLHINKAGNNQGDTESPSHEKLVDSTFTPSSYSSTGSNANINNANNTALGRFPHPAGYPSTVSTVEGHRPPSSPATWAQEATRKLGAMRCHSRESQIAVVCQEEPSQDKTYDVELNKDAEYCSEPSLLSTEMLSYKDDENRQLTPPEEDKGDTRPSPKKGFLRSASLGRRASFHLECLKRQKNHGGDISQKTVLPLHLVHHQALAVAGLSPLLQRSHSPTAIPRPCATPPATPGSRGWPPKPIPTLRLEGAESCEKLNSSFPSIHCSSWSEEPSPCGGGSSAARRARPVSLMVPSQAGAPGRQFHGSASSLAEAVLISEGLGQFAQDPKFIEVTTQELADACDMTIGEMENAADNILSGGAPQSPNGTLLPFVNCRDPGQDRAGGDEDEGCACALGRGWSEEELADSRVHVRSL"}, "source": "ChEMBL document CHEMBL3045722", "about": "“Synthesis, calcium-channel blocking activity, and conformational analysis of some novel 1,4-dihydropyridines: application of PM3 and DFT computational methods” (Med Chem Res, 2012)", "target": "Voltage-dependent L-type calcium channel subunit alpha-1C (Cavia porcellus, UniProt O35505)", "assay": "Antagonist activity at Cavia porcellus albino (guinea pig) calcium channel assessed as inhibition of KCl-induced ileal longitudinal smooth muscle contraction", "data": [{"smiles": "COC(=O)C1=C(C)NC(C)=C(C(=O)OC)C1c1ccccc1[N+](=O)[O-]", "note": "[NIFEDIPINE]", "values": [{"measurement": "IC50", "result": 2.6, "unit": "nM"}]}]}
